# Data as given in PubChem BioAssay AID504444 (National Center for Advancing Translational Sciences (NCATS), 2011).
# Where “and” joins values, the source holds several entries; their conditions need not be identical. Identical values can stand only once. Among all 360,000 compounds or so, about 7,500 (2.1%) were called active. The shares of active, inactive and inconclusive entries below differ from those in the screen. Calls come from the whole dose curve; as a rule, active = well fitted inhibition curve with a large enough effect; inconclusive = small, poorly fitted or top-dose-only effect, or effect the other way; inactive = flat fitted curve, though single readings scatter. Potencies beside an inconclusive call are fits to weak or partial responses and may not hold up.
# Assay: Nrf2 qHTS screen for inhibitors; note: nearly all actives have a fitted effect of over 60% in size
# Details: A549 ARE-Fluc reporter, luciferase luminescence, 18-24 h; activity change, negative = inhibition: at 46 µM (top of the series)
# In short: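 Two sequential reads on A549 ARE_Fluc cells exposed to compound for 18-24 h: a CellTiter-Fluor fluorescence read for viability, then a luciferase luminescence read for Nrf2/ARE activity.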
# % is set by controls: 0 for no effect and ±100 for the full control effect; potency is the fitted concentration of half-maximal effect.
Compound,Potency,"activity change, negative = inhibition"
COc1cccc(NC(=S)N/N=C2/CCCCc3ccccc32)c1,"inconclusive: 20.6 µM [activator, single point]",–
Cc1ccc(C)c(NC(=O)c2cc(=O)c3cc(C)cc(C)c3o2)c1,–,inactive: 19.4%
CCCCn1c(CN(C)Cc2ccccc2)nc2c1c(=O)n(C)c(=O)n2C,"inconclusive: 29.1 µM [falling, single point]",–
Cc1ccc(OCC(=O)NCCCNC(=O)c2ccco2)cc1C,–,inactive: -1.07%
CC(C)CCCCCCCCCCCCC(=O)NCC(=O)NC1C(O)C(O)C(Nc2ncnc3nc[nH]c23)OC1C(O)CO (stereo not drawn),active: 0.058 µM,–
CC1Sc2ccc(S(=O)(=O)N3CCC(C(=O)NCCc4ccccc4)CC3)cc2NC1=O (stereo not drawn),–,inactive: -27.7%
COc1cccc(OCc2nc3ccccc3n2CCOc2cccc(C)c2)c1,"inconclusive: 32.6 µM [falling, single point]",–
CCN1/C(=C\c2ccc3cc(C)ccc3[n+]2CC)Sc2cc(C)c(C)cc21,active: 8.2 µM,–
COc1ccc(-n2cc(-c3ccc(C)cc3)[n+]3c2SCC3)cc1,active: 9.2 µM,–
CC1CN(C(=O)c2ccc(-c3ccccc3Cl)o2)CC(C)O1 (stereo not drawn),"inconclusive: 20.6 µM [activator, single point]",–
Cc1cccc(CS(=O)(=O)c2ncc(Cl)c(C(=O)NCc3ccccc3)n2)c1,"inconclusive: 11.6 µM [falling, single point] and inconclusive: 23.1 µM [falling, single point]",–
CCC(C(=O)Nc1ccc(C(C)=O)cc1)n1c(C)c2cnn(-c3ccccc3)c(=O)c2c1C (stereo not drawn),–,inactive: -11.8%
CC1CCC(C(C)C)C(OC(=O)Cn2c(-c3ccc(F)cc3)[n+](C)c3ccccc32)C1 (stereo not drawn),active: 8.2 µM,–
CC(C)Oc1ccc(C(=O)Nc2ccc(Cl)c(S(=O)(=O)Nc3ccc(Cl)cc3)c2)cc1,"inconclusive: 29.1 µM [falling, single point]",–
O=c1oc2ccccc2c(Nc2ccc(Cl)cc2)c1[N+](=O)[O-],active: 16.4 µM,–
CC(=O)Nc1ccc(S(=O)(=O)NNC(=O)c2cc3c4ccccc4n(C)c3s2)cc1,–,inactive: -8.93%
COc1cc(OC)c(C=NNC(=S)NC23CC4CC(CC(C4)C2)C3)c(OC)c1,"inconclusive: 29.1 µM [falling, single point]",–
CCCCNC(=O)CCc1c(C)nc2c(c(C)nn2-c2ccccc2)c1C,"inconclusive: 29.1 µM [falling, partial curve, poor fit]",–
Cn1c(=O)cc(SCC(=O)NCc2ccc(F)cc2)c2ccccc21,"inconclusive: 10.3 µM [activator, partial curve]",–
CC1(C)COCN1S(=O)(=O)c1ccc(C(=O)Nc2nnc(-c3ccc(Cl)s3)o2)cc1,active: 6.31 µM,–
Cc1cc(C(=O)CSc2nnc(Cc3ccccc3)o2)c(C)n1Cc1ccc2c(c1)OCO2,"inconclusive: 23.1 µM [falling, single point]",–
COc1cc(OC)c(CN2CCC(CO)(CCOc3ccccc3)CC2)c(OC)c1,"inconclusive: 29.1 µM [activator, single point]",–
CCn1c2ccccc2c2cc(N=C3SC(CC(=O)Nc4ccccc4OC)C(=O)N3C)ccc21 (stereo not drawn),"inconclusive: 25.9 µM [falling, single point]",–

Compound,Potency,"activity change, negative = inhibition"
Cn1c(=O)c2c(nc(N/N=C/c3cccs3)n2C)n(C)c1=O,–,inactive: -7.61%
Cc1cc(/C=N/NC(=O)c2cccs2)c(C)n1-c1cnccn1,"inconclusive: 2.59 µM [activator, full curve]",–
O=C(Nc1cccc(S(=O)(=O)N2CCOCC2)c1)c1cccc(S(=O)(=O)N2CCCCC2)c1,"inconclusive: 20.6 µM [falling, partial curve, poor fit]",–
O=C(CN1C(=O)c2cccc3cccc(c23)C1=O)N1CCN(c2ccccn2)CC1,"inconclusive: 29.1 µM [activator, single point]",–
CCc1ccccc1NC(=O)Cc1c(C(=O)O)[nH]c2ccc(Cl)cc12,–,inactive: 3.11%
O=C(Nc1nc(-c2ccc(F)cc2)cs1)C1CCN(C(=O)c2ccc(F)cc2)CC1,"inconclusive: 29.1 µM [falling, single point]",–
COc1ccc(NS(=O)(=O)c2cc(NC(=O)c3cncc(Br)c3)ccc2OC)cc1,"inconclusive: 29.1 µM [falling, single point]",–
Cc1ccc(N=N/C(=C\O)C(=O)c2ccc(Cl)cc2)cc1,"inconclusive: 29.1 µM [falling, single point]",–
COc1ccc(N2CCN(C(=O)Nc3cccc(C(F)(F)F)c3)CC2)cc1,active: 20.6 µM,–
Cc1cc(NC(=O)c2sc(Nc3cccc(C(F)(F)F)c3)nc2N)no1,active: 16.4 µM,–
O=C(CNC1CCCCC1)NCC1(c2ccccc2)CCCC1,–,inactive: 0.664%
Cc1ccc(-n2c(=O)c3oc4ccccc4c3n(CC(=O)Nc3ccccc3)c2=O)cc1C,"inconclusive: 29.1 µM [activator, single point]",–
COC(=O)C1=C(C(=O)OC)C(C(=O)OC)C(C(=O)OC)C(C(=O)OC)(C(=O)OC)C(C(=O)OC)=C1C(=O)OC (stereo not drawn),"inconclusive: 23.1 µM [falling, single point]",–
CCOc1ccc(S(=O)(=O)NCc2cccnc2)cc1NC(=O)c1ccccc1F,–,inactive: -3.68%
N/C(COc1ccccc1)=N\NS(=O)(=O)c1ccccc1,"inconclusive: 18.4 µM [falling, single point]",–
COc1ccccc1NC(=S)NNC(=O)c1ccc(Cl)cc1Cl,"inconclusive: 0.58 µM [activator, full curve, poor fit]",–
O=C(CN1C(=O)NC2(CCCC2)C1=O)N1CCN(c2ccc(C(F)(F)F)cc2[N+](=O)[O-])CC1,"inconclusive: 16.4 µM [falling, partial curve, poor fit]",–
CNC(=O)COc1ccc(Nc2nnc(-c3ccc(C)c(S(=O)(=O)NC(C)(C)C)c3)c3ccccc23)cc1,"inconclusive: 29.1 µM [falling, single point]",–
O=C(O)c1ccc(/C=N/Nc2ncc(C(F)(F)F)cc2Cl)cc1,"inconclusive: 8.2 µM [activator, partial curve, poor fit]",–
CCOc1cc(C2c3c(-c4ccccc4O)n[nH]c3C(=O)N2CCc2ccccc2)ccc1O (stereo not drawn),–,inactive: 4.05%
CCCCCC(=O)Nc1cccc(-c2nc3ncccc3o2)c1,"inconclusive: 9.2 µM [falling, partial curve, poor fit]",–
COc1cc(NC(=O)Cn2cc(S(=O)(=O)c3ccccc3)c(=O)c3ccccc32)cc(OC)c1,"inconclusive: 13 µM [falling, partial curve, poor fit]",–
COc1cccc(-c2ccc3c(N)c(C(=O)Nc4ccc(C)c(F)c4)sc3n2)c1,–,inactive: -20.9%

Compound,Potency,"activity change, negative = inhibition"
COc1ccc(-c2onc(C)c2C)cc1S(=O)(=O)NC1CCC(C)CC1 (stereo not drawn),active: 20.6 µM,–
CCc1ccc(NC(=S)N2CCCCCCC2)cc1,"inconclusive: 1.84 µM [activator, full curve, poor fit]",–
Cc1ccc(N2CC(C(=O)N3CCC4(CC3)CC(=O)c3ccccc3O4)CC2=O)cc1C (stereo not drawn),"inconclusive: 18.4 µM [falling, single point]",–
COc1ccc(OCC(=O)NC2CCCN(Cc3ccc(Cl)cc3)C2)cc1 (stereo not drawn),"inconclusive: 29.1 µM [falling, single point]",–
C=CCOC(=O)C1=C(C)NC(=O)NC1c1ccc(N(C)C)cc1 (stereo not drawn),"inconclusive: 20.6 µM [falling, partial curve, poor fit]",–
Cc1cc(/C=N/NC(N)=S)c(C)n1-c1ccc(Cl)c(Cl)c1,"inconclusive: 14.6 µM [falling, single point]",–
COc1ccc2nc(NC3=NCCC3)sc2c1,"inconclusive: 10 µM [activator, partial curve]",–
Cc1c(C(=O)Nc2cccc([N+](=O)[O-])c2)cnn1-c1ccccc1,"inconclusive: 29.1 µM [falling, single point]",–
O=C(N/N=C\c1cccc(OC(=O)c2ccco2)c1)c1ccc2c(c1)OCO2,active: 2.31 µM,–
CC(C)(C)C1C/C(=C/c2ccccn2)C(=O)/C(=C/c2ccccn2)C1 (stereo not drawn),active: 5.8 µM,–
Cc1ccc(-n2nc3c(=O)n(CC(=O)NC(C)CCc4ccccc4)nc(C)c3c2C)cc1 (stereo not drawn),active: 5.17 µM,–
Cc1cc(Cl)ccc1NC(=O)C1COc2ccccc2O1 (stereo not drawn),"inconclusive: 10.3 µM [activator, partial curve, poor fit]",–
O=C(CCCOc1ccccc1)Nc1cccc(S(=O)(=O)N2CCCCC2)c1,–,inactive: -24.3%
COc1ccc(CCNC(=O)CC(=O)N/N=C/c2ccc(Br)cc2)cc1OC,"inconclusive: 1.46 µM [falling, full curve]",–
Clc1cccc(Cl)c1CON/C=N/c1ncnc2sccc12,"inconclusive: 29.1 µM [falling, single point]",–
Fc1ccc2nncc(SCc3ccccc3Cl)c2c1,–,inactive: 4.59%
O=C(Nc1ccc(C(F)(F)F)cc1)N1CCN(C(=O)c2ccco2)CC1,"inconclusive: 13 µM [falling, partial curve, poor fit]",–
CCCC(=O)N1CCN(c2ccc(NC(=S)NC(=O)c3cccc(C)c3)cc2)CC1,active: 14.6 µM,–
O=C(C[C@H]1C(=O)N(CCc2ccccc2)C[C@@H]1Cc1ccccc1)Nc1ccccc1,–,inactive: 4.85%
CC1C(=O)C(C)C(c2cc(Br)ccc2O)NC1c1cc(Br)ccc1O (stereo not drawn),"inconclusive: 20.6 µM [activator, single point]",–
CSc1cc(C)c(OCC(=O)Nc2ccc(NC(C)=O)cc2)c(C)c1,–,inactive: -4.33%
CCOc1ccc(CCNC(=O)c2ccc(F)c(S(=O)(=O)N3CCOCC3)c2)cc1OCC,"inconclusive: 18.4 µM [falling, partial curve]",–
